Counter-ions that a name gives are not always drawn. The list shows a part of the results. Hit calls seldom repeat between salt and free forms of one compound.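 In K562 cells expressing nanoluciferase-fused kinases, luminescence was recorded at 4 h intervals between 2 and 18 h, normalized as percent of control with DMSO at 100% and a positive control at 0%. A significant (2 sigma) signal drop marks a time point as decreased. The authors' rule for a hit is not shown and takes in more than the number of time points.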
How the values were obtained:
Assay in all cases: kinase-Nluc reporter destabilization hit call (1 = scored as downregulated) (binary); higher = compound decreases kinase abundance
Conditions in all cases: K562; 2-18 h
CDK7 = CDK7 (UniProt P50613)
CDK9 = CDK9 (UniProt P50750)
CHEK2 = CHEK2 (UniProt O96017)
CSF1R = CSF1R (UniProt P07333)
CSK = CSK (UniProt P41240)
CSNK1A1 = CSNK1A1 (UniProt P48729)
CSNK1D = CSNK1D (UniProt P48730)
DDR1 = DDR1 (UniProt Q08345)
DYRK1B = DYRK1B (UniProt Q9Y463)
DYRK2 = DYRK2 (UniProt Q92630)
EGFR = EGFR (UniProt P00533)
EGFR_G719S = EGFR_G719S (UniProt P00533)
EGFR_G719S_T790M = EGFR_G719S_T790M (UniProt P00533)
EGFR_L718V = EGFR_L718V (UniProt P00533)
EGFR_L858R = EGFR_L858R (UniProt P00533)
EGFR_L861Q = EGFR_L861Q (UniProt P00533)
EGFR_T790M = EGFR_T790M (UniProt P00533)
EPHA2 = EPHA2 (UniProt P29317)
ERBB3 = ERBB3 (UniProt P21860)
[1] = target: ERBB4_R711C (clone: ERBB4_mut) (UniProt Q15303)

Chains of the proteins cited; added tags and fusions are not shown. Lines headed by an entry give the natural chain unless they say otherwise; changes in a name come on top.
UniProt P50750, whole entry: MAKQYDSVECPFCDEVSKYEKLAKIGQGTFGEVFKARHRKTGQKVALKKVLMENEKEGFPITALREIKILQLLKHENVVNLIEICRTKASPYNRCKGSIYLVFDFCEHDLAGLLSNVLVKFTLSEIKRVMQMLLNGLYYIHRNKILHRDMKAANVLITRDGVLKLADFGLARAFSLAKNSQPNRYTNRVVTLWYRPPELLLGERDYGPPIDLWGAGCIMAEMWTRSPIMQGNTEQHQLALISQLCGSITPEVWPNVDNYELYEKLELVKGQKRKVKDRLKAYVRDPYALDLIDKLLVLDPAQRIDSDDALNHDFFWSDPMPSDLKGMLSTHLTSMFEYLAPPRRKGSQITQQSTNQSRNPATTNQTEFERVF
UniProt O96017, whole entry: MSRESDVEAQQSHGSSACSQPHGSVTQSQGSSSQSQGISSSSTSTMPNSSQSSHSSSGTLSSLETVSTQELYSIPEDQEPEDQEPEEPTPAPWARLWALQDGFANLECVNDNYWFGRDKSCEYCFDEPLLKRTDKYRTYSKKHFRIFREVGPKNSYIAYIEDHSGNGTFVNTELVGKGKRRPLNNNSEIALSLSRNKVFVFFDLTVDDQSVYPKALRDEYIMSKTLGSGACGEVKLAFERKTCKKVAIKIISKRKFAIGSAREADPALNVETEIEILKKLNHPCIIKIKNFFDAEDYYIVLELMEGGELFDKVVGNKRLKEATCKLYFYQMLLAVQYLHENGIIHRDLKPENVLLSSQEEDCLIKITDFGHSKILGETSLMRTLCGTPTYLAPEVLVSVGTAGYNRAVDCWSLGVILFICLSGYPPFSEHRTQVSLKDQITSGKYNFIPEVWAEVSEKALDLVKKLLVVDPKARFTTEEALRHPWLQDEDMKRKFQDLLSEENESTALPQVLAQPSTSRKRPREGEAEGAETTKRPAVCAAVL
UniProt P07333, whole entry: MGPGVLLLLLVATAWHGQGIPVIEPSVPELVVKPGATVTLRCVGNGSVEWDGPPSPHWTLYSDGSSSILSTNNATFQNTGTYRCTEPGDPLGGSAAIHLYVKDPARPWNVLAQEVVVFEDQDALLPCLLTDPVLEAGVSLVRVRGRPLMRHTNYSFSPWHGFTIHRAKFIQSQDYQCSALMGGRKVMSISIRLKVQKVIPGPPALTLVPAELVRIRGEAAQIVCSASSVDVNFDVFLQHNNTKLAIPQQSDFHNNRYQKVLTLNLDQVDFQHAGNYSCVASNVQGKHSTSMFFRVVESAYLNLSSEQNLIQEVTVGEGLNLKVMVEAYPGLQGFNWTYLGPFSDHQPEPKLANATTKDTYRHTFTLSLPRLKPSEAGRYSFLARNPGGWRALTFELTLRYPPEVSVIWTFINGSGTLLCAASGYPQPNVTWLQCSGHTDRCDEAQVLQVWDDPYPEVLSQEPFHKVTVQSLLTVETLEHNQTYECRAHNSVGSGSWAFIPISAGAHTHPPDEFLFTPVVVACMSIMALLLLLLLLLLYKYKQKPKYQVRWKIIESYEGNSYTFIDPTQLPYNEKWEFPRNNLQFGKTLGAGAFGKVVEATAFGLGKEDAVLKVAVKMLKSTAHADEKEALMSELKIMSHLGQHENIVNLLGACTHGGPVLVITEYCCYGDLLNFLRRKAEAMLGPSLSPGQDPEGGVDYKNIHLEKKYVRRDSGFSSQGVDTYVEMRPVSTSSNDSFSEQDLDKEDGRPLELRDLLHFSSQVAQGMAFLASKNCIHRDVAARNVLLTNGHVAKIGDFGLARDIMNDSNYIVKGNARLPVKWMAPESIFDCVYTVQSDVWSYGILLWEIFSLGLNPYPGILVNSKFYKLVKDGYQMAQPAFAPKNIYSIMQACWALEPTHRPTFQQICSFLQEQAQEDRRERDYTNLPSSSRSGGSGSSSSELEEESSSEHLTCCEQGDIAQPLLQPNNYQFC
UniProt P41240: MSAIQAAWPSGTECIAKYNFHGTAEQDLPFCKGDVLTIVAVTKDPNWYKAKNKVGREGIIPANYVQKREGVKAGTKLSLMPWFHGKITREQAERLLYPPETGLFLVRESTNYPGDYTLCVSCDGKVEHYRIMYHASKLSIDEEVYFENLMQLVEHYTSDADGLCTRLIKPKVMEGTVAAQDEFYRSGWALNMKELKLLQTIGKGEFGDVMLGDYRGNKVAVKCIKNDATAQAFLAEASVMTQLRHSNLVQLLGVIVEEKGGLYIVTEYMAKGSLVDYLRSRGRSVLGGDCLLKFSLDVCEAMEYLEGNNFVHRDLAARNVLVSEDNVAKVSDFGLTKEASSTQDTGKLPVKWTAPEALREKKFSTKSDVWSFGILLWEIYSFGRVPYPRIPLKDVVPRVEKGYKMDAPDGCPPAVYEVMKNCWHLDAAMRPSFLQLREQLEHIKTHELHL
UniProt P48730: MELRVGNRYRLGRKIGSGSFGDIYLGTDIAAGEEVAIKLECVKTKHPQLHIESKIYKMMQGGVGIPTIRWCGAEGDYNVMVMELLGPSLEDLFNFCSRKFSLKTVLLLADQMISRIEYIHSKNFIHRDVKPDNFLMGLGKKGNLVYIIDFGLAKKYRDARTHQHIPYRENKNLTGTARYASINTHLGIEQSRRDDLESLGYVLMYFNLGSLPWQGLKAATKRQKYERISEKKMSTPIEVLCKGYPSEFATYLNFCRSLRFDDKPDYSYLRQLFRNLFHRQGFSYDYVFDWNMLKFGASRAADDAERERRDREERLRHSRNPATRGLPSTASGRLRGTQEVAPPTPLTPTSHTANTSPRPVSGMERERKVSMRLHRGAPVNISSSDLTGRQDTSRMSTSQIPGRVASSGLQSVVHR
UniProt Q08345: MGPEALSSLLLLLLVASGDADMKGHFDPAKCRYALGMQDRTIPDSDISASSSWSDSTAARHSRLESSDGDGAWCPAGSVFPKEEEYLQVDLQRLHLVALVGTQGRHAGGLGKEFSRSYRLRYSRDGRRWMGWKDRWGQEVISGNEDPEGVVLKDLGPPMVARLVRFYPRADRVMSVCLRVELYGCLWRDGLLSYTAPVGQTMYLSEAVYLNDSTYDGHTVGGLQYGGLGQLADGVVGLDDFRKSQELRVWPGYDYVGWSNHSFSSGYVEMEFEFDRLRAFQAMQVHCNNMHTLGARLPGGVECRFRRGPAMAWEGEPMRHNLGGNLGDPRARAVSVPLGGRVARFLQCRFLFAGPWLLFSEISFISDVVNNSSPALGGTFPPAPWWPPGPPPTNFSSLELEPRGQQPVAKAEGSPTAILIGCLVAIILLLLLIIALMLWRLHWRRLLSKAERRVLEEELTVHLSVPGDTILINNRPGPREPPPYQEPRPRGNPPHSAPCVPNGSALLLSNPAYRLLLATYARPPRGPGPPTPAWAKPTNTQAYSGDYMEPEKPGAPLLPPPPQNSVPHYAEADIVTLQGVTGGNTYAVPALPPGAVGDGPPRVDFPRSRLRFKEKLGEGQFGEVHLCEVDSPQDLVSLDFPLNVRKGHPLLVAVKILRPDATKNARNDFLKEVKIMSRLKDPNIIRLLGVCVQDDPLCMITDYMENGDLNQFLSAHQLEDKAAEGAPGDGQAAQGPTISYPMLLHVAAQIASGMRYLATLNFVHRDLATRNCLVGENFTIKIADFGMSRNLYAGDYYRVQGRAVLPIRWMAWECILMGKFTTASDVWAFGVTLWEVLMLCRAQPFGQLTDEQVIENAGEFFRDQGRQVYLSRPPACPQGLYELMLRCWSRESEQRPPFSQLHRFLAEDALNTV
UniProt P21860, whole entry: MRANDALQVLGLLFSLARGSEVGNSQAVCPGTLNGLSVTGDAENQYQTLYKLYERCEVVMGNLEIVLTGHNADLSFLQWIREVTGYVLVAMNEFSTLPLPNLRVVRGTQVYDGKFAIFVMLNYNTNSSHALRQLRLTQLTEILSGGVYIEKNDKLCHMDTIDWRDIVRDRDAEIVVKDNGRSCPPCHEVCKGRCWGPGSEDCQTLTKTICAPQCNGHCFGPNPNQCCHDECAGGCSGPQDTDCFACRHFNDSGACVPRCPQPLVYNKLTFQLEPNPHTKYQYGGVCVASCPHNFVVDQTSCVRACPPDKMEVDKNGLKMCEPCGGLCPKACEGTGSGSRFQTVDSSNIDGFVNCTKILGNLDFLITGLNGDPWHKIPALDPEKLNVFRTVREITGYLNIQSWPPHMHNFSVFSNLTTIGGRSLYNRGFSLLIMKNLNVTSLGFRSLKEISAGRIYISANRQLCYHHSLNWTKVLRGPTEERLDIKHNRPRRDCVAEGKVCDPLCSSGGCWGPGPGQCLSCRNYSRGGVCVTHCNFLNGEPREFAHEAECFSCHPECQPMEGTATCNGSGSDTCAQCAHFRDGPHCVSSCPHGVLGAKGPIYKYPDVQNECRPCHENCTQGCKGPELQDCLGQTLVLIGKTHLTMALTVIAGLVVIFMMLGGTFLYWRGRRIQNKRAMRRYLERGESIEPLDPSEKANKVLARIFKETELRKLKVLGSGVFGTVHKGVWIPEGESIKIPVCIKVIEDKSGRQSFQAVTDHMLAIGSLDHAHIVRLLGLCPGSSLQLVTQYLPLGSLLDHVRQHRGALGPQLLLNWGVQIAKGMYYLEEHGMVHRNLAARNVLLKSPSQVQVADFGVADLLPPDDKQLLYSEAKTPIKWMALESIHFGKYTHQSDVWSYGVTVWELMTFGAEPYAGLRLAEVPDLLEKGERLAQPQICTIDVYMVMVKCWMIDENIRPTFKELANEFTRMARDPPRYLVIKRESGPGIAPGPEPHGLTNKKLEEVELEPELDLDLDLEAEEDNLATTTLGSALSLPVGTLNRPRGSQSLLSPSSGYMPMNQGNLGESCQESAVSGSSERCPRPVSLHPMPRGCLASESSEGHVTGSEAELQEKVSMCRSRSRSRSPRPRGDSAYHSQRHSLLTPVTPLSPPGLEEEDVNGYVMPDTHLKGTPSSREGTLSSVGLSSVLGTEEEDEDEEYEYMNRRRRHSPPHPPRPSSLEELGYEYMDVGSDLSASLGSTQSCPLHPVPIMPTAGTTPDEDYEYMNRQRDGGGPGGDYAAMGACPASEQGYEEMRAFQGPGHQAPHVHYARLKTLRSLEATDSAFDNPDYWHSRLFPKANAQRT
UniProt Q15303, whole entry R711C: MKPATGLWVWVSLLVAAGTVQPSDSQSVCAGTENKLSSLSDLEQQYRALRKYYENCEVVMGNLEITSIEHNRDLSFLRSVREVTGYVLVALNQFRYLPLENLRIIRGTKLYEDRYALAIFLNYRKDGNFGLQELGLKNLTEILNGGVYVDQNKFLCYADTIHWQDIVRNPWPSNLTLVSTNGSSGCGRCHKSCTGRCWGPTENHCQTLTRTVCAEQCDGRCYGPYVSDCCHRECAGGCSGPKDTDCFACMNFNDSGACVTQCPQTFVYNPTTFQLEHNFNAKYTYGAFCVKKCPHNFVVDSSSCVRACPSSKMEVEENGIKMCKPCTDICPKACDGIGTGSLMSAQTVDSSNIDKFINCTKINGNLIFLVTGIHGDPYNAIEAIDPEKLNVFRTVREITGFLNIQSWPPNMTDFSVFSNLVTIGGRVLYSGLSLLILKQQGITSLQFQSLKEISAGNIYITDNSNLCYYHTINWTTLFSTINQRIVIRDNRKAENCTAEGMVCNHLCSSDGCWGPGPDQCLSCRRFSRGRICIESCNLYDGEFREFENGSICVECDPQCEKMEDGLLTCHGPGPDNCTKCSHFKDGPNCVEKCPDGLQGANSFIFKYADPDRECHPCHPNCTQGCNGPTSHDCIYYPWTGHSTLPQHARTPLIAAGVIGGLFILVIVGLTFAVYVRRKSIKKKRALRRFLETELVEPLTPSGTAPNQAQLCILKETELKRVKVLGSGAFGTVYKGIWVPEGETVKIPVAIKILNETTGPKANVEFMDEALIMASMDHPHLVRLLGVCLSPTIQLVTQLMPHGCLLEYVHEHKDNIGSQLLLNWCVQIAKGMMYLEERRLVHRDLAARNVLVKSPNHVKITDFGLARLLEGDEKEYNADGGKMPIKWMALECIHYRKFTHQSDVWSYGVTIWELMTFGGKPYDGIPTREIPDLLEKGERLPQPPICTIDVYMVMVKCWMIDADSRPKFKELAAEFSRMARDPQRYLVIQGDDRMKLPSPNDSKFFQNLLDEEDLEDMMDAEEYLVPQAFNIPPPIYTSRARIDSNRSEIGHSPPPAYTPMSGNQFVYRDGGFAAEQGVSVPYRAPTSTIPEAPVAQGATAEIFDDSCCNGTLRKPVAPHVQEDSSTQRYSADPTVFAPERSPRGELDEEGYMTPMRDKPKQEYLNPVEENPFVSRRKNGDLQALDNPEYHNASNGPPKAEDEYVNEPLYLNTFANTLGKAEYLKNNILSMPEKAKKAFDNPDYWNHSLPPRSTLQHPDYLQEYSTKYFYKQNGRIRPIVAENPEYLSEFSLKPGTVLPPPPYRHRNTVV

Measured: kinase-Nluc reporter destabilization hit call

Cc1c(NC(=O)c2cccn(-c3ccc(F)cc3)c2=O)ccc(Oc2ccnc(NC(=O)C3CC3)c2)c1C (2 µM)
inactive: CDK7 = 0 | CDK9 = 0 | CHEK2 = 0 | CSF1R 0 | CSK 0 | CSNK1A1 = 0 | CSNK1D 0 | DDR1 = 0 | DYRK1B 0 | DYRK2 = 0 | EGFR 0 | EGFR_G719S 0 | EGFR_G719S_T790M 0 | EGFR_L718V 0 | EGFR_L858R 0 | EGFR_L861Q 0 | EGFR_T790M 0 | EPHA2 = 0 | ERBB3 = 0 | [1] 0

Cc1ccccc1-n1c([C@H](C)Nc2nc(N)nc3nc[nH]c23)nc2cccc(C)c2c1=O [CAL-130 (Hydrochloride)] (10 µM)
inactive: CDK7 = 0 | CDK9 = 0 | CHEK2 = 0 | CSF1R 0 | CSK 0 | CSNK1A1 = 0 | CSNK1D 0 | DDR1 = 0 | DYRK1B 0 | DYRK2 = 0 | EGFR 0 | EGFR_G719S 0 | EGFR_G719S_T790M 0 | EGFR_L718V 0 | EGFR_L858R 0 | EGFR_L861Q 0 | EGFR_T790M 0 | EPHA2 = 0 | ERBB3 = 0 | [1] 0

COc1cc(Nc2ncc(F)c(Nc3ccc4c(n3)NC(=O)C(C)(C)O4)n2)cc(OC)c1OC (10 µM)
inactive: CDK7 = 0 | CDK9 = 0 | CHEK2 = 0 | CSF1R 0 | CSK 0 | CSNK1A1 = 0 | CSNK1D 0 | DDR1 = 0 | DYRK1B 0 | DYRK2 = 0 | EPHA2 = 0 | ERBB3 = 0 | [1] 0

Cc1ccc2nc(NCCN)c3ncc(C)n3c2c1 (2.5 µM)
inactive: CDK7 = 0 | CDK9 = 0 | CHEK2 = 0 | CSF1R 0 | CSK 0 | CSNK1A1 = 0 | CSNK1D 0 | DDR1 = 0 | DYRK1B 0 | DYRK2 = 0 | EGFR 0 | EGFR_G719S 0 | EGFR_G719S_T790M 0 | EGFR_L718V 0 | EGFR_L858R 0 | EGFR_L861Q 0 | EGFR_T790M 0 | EPHA2 = 0 | ERBB3 = 0 | [1] 0

CCOc1ccc2cc(-c3nn(CC4CCN(C)CC4)c4ncnc(N)c34)ccc2n1 (10 µM)
inactive: CDK7 = 0 | CDK9 = 0 | CHEK2 = 0 | CSF1R 0 | CSK 0 | CSNK1A1 = 0 | CSNK1D 0 | DDR1 = 0 | DYRK1B 0 | DYRK2 = 0 | EGFR 0 | EGFR_G719S 0 | EGFR_G719S_T790M 0 | EGFR_L718V 0 | EGFR_L858R 0 | EGFR_L861Q 0 | EGFR_T790M 0 | EPHA2 = 0 | ERBB3 = 0 | [1] 0

O=C(NCCN1CCOCC1)c1cc2c(Oc3ccc(NC(=O)C4(C(=O)Nc5ccc(F)cc5)CC4)cc3)ccnc2[nH]1 [Tyrosine kinase inhibitor] (10 µM)
inactive: CDK7 = 0 | CDK9 = 0 | CHEK2 = 0 | CSF1R 0 | CSK 0 | CSNK1A1 = 0 | CSNK1D 0 | DDR1 = 0 | DYRK1B 0 | DYRK2 = 0 | EGFR 0 | EGFR_G719S 0 | EGFR_G719S_T790M 0 | EGFR_L718V 0 | EGFR_L858R 0 | EGFR_L861Q 0 | EGFR_T790M 0 | EPHA2 = 0 | ERBB3 = 0 | [1] 0

Nc1nc2ccc(Cl)cc2c2nc(-c3ccco3)nn12 (10 µM)
inactive: CDK7 = 0 | CDK9 = 0 | CHEK2 = 0 | CSF1R 0 | CSK 0 | CSNK1A1 = 0 | CSNK1D 0 | DDR1 = 0 | DYRK1B 0 | DYRK2 = 0 | EGFR 0 | EGFR_G719S 0 | EGFR_G719S_T790M 0 | EGFR_L718V 0 | EGFR_L858R 0 | EGFR_L861Q 0 | EGFR_T790M 0 | EPHA2 = 0 | ERBB3 = 0 | [1] 0

COc1ccc(Cl)c(Nc2nc3ccccc3nc2NS(=O)(=O)c2cccc(NC(=O)C(C)(C)N)c2)c1 [Pilaralisib] (10 µM)
inactive: CDK7 = 0 | CDK9 = 0 | CHEK2 = 0 | CSF1R 0 | CSK 0 | CSNK1A1 = 0 | CSNK1D 0 | DDR1 = 0 | DYRK1B 0 | DYRK2 = 0 | EGFR 0 | EGFR_G719S 0 | EGFR_G719S_T790M 0 | EGFR_L718V 0 | EGFR_L858R 0 | EGFR_L861Q 0 | EGFR_T790M 0 | EPHA2 = 0 | ERBB3 = 0 | [1] 0

C[C@@H](c1ccc(F)cc1)n1nnc2cnc3ccc(-c4ccc5ocnc5c4)cc3c21 (10 µM)
inactive: CDK7 = 0 | CDK9 = 0 | CHEK2 = 0 | CSF1R 0 | CSK 0 | CSNK1A1 = 0 | CSNK1D 0 | DDR1 = 0 | DYRK1B 0 | DYRK2 = 0 | EGFR 0 | EGFR_G719S 0 | EGFR_G719S_T790M 0 | EGFR_L718V 0 | EGFR_L858R 0 | EGFR_L861Q 0 | EGFR_T790M 0 | EPHA2 = 0 | ERBB3 = 0 | [1] 0

CNC(=O)c1cc(COc2nnc(Nc3ccc(Cl)cc3)c3ccoc23)ccn1 [Telatinib] (10 µM)
inactive: CDK7 = 0 | CDK9 = 0 | CHEK2 = 0 | CSF1R 0 | CSK 0 | CSNK1A1 = 0 | CSNK1D 0 | DDR1 = 0 | DYRK1B 0 | DYRK2 = 0 | EGFR 0 | EGFR_G719S 0 | EGFR_G719S_T790M 0 | EGFR_L718V 0 | EGFR_L858R 0 | EGFR_L861Q 0 | EGFR_T790M 0 | EPHA2 = 0 | ERBB3 = 0 | [1] 0

Cc1cc(O)c2c(c1)C(=O)c1cc(O)cc(O)c1C2=O [Emodin] (10 µM)
inactive: CDK7 = 0 | CDK9 = 0 | CHEK2 = 0 | CSF1R 0 | CSK 0 | CSNK1A1 = 0 | CSNK1D 0 | DDR1 = 0 | DYRK1B 0 | DYRK2 = 0 | EGFR 0 | EGFR_G719S 0 | EGFR_G719S_T790M 0 | EGFR_L718V 0 | EGFR_L858R 0 | EGFR_L861Q 0 | EGFR_T790M 0 | EPHA2 = 0 | ERBB3 = 0 | [1] 0

2 neighbouring entries out of the list so far, for reference:
Nc1nc2ccc(Cl)cc2c2nc(-c3ccco3)nn12 (10 µM)
inactive: CDK7 = 0 | CDK9 = 0 | CHEK2 = 0 | CSF1R 0 | CSK 0 | CSNK1A1 = 0 | CSNK1D 0 | DDR1 = 0 | DYRK1B 0 | DYRK2 = 0 | EGFR 0 | EGFR_G719S 0 | EGFR_G719S_T790M 0 | EGFR_L718V 0 | EGFR_L858R 0 | EGFR_L861Q 0 | EGFR_T790M 0 | EPHA2 = 0 | ERBB3 = 0 | [1] 0

COc1ccc(Cl)c(Nc2nc3ccccc3nc2NS(=O)(=O)c2cccc(NC(=O)C(C)(C)N)c2)c1 [Pilaralisib] (10 µM)
inactive: CDK7 = 0 | CDK9 = 0 | CHEK2 = 0 | CSF1R 0 | CSK 0 | CSNK1A1 = 0 | CSNK1D 0 | DDR1 = 0 | DYRK1B 0 | DYRK2 = 0 | EGFR 0 | EGFR_G719S 0 | EGFR_G719S_T790M 0 | EGFR_L718V 0 | EGFR_L858R 0 | EGFR_L861Q 0 | EGFR_T790M 0 | EPHA2 = 0 | ERBB3 = 0 | [1] 0

(continued)

Cc1[nH]c(/C=C2\C(=O)Nc3ccc(F)cc32)c(C)c1C(=O)N[C@H]1CCN(C(=O)N(C)C)C1 [Vorolanib] (10 µM)
inactive: CDK7 = 0 | CDK9 = 0 | CHEK2 = 0 | CSF1R 0 | CSK 0 | CSNK1A1 = 0 | CSNK1D 0 | DDR1 = 0 | DYRK1B 0 | DYRK2 = 0 | EGFR 0 | EGFR_G719S 0 | EGFR_G719S_T790M 0 | EGFR_L718V 0 | EGFR_L858R 0 | EGFR_L861Q 0 | EGFR_T790M 0 | EPHA2 = 0 | ERBB3 = 0 | [1] 0

CN(C)C(=O)Cn1cc(-c2ccc(-c3cncc4ccccc34)cc2)cn1 (10 µM)
inactive: CDK7 = 0 | CDK9 = 0 | CHEK2 = 0 | CSF1R 0 | CSK 0 | CSNK1A1 = 0 | CSNK1D 0 | DDR1 = 0 | DYRK1B 0 | DYRK2 = 0 | EGFR 0 | EGFR_G719S 0 | EGFR_G719S_T790M 0 | EGFR_L718V 0 | EGFR_L858R 0 | EGFR_L861Q 0 | EGFR_T790M 0 | EPHA2 = 0 | ERBB3 = 0 | [1] 0

Cn1cc(-c2ccc3c(c2)CCN3C(=O)Cc2cccc(C(F)(F)F)c2)c2c(N)ncnc21 (2.5 µM)
inactive: CDK7 = 0 | CDK9 = 0 | CHEK2 = 0 | CSF1R 0 | CSK 0 | CSNK1A1 = 0 | CSNK1D 0 | DDR1 = 0 | DYRK1B 0 | DYRK2 = 0 | EGFR 0 | EGFR_G719S 0 | EGFR_G719S_T790M 0 | EGFR_L718V 0 | EGFR_L858R 0 | EGFR_L861Q 0 | EGFR_T790M 0 | EPHA2 = 0 | ERBB3 = 0 | [1] 0

FC(F)c1nc2ccccc2n1-c1nc(N2CCOCC2)nc(N2CCOCC2)n1 (2 µM)
inactive: CDK7 = 0 | CDK9 = 0 | CHEK2 = 0 | CSF1R 0 | CSK 0 | CSNK1A1 = 0 | CSNK1D 0 | DDR1 = 0 | DYRK1B 0 | DYRK2 = 0 | EGFR 0 | EGFR_G719S 0 | EGFR_G719S_T790M 0 | EGFR_L718V 0 | EGFR_L858R 0 | EGFR_L861Q 0 | EGFR_T790M 0 | EPHA2 = 0 | ERBB3 = 0 | [1] 0

CN1CCN(c2cnc3c(C4CCN(C(=O)c5ccc(OC(F)(F)F)cc5N)CC4)ncnc3c2)CC1 (10 µM)
inactive: CDK7 = 0 | CDK9 = 0 | CHEK2 = 0 | CSF1R 0 | CSK 0 | CSNK1A1 = 0 | CSNK1D 0 | DDR1 = 0 | DYRK1B 0 | DYRK2 = 0 | EGFR 0 | EGFR_G719S 0 | EGFR_G719S_T790M 0 | EGFR_L718V 0 | EGFR_L858R 0 | EGFR_L861Q 0 | EGFR_T790M 0 | EPHA2 = 0 | ERBB3 = 0 | [1] 0

Source: the supplement of paper PMC12823440, “Inhibitors supercharge kinase turnover through native proteolytic circuits” (Nature, 2025)
